Measured values as given in article PMC4604155.

Amino acid sequences for entries named in this document (tags omitted).
UniProt P08670: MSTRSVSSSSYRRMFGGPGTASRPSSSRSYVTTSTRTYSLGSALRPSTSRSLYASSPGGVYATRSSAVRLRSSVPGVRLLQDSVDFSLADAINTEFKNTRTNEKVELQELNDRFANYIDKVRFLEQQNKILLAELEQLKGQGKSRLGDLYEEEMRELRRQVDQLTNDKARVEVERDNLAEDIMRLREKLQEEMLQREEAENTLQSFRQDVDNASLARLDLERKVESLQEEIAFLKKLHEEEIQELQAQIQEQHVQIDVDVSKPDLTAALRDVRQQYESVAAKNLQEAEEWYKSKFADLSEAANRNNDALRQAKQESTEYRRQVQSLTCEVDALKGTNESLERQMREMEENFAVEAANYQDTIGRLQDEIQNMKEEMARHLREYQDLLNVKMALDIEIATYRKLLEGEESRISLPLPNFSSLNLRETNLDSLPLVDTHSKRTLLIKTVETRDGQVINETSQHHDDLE
UniProt P41219: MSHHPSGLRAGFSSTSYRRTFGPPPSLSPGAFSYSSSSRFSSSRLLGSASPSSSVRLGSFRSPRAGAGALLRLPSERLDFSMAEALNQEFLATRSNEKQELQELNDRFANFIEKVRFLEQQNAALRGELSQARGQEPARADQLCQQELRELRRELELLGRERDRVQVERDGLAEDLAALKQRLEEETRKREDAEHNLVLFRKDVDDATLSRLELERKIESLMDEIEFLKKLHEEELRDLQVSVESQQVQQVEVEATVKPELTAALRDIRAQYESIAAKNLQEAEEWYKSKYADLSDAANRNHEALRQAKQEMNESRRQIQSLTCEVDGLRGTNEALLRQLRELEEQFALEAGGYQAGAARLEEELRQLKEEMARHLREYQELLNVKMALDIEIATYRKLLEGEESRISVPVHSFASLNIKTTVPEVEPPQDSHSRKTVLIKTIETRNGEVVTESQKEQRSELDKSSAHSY
UniProt P08238: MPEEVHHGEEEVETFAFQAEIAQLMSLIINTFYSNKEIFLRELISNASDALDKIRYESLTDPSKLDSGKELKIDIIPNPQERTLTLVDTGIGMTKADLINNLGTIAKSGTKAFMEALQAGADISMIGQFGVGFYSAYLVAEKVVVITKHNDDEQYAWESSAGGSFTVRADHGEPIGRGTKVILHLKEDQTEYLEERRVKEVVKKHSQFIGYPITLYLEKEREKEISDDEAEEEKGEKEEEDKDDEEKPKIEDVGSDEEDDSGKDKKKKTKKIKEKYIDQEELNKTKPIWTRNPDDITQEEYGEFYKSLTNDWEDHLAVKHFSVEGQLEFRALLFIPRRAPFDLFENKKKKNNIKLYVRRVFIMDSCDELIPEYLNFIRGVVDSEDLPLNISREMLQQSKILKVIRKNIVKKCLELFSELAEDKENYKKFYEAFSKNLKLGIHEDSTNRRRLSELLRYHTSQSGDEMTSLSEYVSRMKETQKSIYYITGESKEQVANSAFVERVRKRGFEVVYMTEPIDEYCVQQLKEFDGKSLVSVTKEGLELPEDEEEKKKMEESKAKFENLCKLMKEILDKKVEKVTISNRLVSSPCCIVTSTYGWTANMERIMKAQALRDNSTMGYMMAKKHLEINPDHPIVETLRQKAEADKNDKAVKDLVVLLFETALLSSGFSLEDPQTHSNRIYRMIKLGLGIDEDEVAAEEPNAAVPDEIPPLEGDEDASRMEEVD
UniProt O75592: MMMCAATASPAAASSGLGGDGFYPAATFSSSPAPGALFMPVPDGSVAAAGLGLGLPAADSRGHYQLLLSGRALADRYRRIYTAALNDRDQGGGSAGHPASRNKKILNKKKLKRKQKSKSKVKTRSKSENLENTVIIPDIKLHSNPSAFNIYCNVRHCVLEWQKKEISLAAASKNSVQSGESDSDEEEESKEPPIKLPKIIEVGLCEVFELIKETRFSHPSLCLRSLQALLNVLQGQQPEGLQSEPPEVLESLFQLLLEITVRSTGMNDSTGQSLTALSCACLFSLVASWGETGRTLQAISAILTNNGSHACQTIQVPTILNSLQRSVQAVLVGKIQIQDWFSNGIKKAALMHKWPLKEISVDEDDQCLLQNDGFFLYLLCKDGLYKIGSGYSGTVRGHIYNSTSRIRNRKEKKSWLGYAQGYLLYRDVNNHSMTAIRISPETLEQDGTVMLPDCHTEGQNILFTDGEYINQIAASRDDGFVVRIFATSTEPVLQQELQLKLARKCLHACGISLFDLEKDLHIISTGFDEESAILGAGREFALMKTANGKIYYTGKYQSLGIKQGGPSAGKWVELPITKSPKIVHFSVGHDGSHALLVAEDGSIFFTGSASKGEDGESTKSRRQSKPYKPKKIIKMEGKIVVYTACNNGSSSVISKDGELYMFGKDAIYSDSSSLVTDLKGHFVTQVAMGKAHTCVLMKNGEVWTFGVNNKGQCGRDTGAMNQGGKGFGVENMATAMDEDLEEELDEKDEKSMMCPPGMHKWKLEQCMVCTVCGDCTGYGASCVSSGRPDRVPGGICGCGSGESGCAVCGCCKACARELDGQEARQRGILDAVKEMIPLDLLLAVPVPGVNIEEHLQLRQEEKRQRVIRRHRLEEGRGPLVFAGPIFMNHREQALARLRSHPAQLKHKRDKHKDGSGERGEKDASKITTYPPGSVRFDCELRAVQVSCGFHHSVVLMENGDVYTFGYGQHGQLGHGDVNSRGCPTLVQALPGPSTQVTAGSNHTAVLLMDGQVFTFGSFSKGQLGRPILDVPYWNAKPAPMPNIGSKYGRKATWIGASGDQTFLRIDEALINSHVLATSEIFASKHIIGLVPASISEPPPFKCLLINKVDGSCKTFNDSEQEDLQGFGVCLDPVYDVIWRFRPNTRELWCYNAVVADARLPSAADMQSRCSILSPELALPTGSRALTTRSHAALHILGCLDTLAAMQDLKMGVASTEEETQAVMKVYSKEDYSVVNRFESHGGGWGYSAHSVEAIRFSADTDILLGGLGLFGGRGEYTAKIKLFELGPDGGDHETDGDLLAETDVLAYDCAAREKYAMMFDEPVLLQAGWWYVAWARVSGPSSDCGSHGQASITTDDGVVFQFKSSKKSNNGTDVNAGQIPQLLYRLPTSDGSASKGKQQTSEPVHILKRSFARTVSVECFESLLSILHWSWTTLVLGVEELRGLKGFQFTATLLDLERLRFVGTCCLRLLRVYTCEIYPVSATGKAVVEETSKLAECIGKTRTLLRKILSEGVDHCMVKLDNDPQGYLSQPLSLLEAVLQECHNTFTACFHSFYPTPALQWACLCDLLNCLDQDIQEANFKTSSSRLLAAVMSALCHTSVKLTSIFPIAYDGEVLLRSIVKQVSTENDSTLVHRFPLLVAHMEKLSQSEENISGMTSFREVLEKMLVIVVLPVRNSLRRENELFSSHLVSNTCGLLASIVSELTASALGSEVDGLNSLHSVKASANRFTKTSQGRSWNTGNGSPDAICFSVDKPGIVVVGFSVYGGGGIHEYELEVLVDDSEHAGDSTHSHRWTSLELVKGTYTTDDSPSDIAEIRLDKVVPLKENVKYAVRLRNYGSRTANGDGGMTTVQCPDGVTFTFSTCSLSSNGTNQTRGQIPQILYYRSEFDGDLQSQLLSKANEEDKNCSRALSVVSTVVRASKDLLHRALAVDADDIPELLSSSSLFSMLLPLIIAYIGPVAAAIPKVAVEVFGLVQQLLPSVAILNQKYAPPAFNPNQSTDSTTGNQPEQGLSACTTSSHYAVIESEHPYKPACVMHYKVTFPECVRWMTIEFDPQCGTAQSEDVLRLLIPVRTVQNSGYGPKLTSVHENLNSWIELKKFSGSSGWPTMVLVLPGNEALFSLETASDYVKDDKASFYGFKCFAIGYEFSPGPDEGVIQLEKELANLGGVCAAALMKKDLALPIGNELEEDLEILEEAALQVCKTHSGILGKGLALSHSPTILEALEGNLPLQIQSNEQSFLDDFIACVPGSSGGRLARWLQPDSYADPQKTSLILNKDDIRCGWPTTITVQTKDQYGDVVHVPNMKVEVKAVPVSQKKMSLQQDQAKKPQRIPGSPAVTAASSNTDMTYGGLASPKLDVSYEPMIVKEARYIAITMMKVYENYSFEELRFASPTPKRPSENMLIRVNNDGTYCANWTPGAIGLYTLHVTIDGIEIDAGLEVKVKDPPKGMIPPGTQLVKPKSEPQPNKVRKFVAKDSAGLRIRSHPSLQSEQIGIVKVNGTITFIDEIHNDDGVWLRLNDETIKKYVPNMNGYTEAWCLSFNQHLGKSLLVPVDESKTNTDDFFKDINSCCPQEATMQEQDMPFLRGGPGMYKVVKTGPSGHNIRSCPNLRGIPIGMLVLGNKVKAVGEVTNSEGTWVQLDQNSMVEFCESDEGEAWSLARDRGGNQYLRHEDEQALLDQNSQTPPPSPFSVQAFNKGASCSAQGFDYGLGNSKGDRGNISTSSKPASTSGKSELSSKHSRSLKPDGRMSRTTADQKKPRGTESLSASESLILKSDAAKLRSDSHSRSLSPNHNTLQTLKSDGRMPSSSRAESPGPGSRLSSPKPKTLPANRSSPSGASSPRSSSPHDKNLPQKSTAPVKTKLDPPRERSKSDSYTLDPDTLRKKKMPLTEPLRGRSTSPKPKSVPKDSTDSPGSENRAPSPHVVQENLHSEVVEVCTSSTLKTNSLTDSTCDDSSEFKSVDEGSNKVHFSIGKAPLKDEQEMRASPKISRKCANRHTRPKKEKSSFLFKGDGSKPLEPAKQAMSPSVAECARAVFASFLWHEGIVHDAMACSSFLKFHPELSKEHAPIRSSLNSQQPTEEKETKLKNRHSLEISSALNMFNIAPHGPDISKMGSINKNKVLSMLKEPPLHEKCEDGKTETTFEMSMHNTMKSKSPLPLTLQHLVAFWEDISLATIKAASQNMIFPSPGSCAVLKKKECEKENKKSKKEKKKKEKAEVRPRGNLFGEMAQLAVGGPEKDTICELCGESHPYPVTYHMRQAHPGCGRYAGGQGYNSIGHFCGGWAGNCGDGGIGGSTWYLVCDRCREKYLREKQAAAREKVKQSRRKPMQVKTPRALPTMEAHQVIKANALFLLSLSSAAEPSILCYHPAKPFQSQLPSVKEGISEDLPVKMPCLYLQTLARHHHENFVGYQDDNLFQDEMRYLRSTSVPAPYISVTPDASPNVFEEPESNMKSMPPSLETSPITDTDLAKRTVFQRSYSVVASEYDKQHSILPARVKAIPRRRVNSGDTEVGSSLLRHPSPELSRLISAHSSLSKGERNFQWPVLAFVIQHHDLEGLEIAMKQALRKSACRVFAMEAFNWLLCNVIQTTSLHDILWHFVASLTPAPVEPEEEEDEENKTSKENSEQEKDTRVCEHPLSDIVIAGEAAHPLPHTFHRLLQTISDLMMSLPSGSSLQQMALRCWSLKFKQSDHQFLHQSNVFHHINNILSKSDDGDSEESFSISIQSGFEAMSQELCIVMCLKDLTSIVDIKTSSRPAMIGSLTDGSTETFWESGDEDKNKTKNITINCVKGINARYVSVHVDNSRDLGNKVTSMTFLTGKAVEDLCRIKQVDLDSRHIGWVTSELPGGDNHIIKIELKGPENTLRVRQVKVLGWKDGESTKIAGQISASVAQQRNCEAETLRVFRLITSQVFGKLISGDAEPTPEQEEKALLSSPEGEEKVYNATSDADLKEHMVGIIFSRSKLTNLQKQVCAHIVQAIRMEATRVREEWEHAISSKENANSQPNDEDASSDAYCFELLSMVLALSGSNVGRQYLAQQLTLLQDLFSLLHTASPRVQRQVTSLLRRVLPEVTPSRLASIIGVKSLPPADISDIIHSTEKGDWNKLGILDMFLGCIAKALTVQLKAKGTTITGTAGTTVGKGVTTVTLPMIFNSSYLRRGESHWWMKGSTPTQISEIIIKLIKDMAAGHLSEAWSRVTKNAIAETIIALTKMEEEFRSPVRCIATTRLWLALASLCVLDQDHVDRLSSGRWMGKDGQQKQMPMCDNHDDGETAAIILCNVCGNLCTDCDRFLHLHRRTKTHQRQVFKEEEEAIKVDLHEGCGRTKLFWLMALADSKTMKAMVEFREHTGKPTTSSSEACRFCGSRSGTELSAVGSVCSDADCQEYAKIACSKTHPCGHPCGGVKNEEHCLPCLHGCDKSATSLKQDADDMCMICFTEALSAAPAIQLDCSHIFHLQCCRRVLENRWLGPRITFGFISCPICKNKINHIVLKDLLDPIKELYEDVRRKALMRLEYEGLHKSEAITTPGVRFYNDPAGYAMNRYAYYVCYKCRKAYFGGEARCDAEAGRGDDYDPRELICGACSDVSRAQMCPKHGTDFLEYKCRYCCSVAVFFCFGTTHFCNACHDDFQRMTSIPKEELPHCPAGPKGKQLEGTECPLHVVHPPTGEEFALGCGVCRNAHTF

T1: FLAG-tagged full-length gigaxonin (GIG) (UniProt Q9H2C0)
T1 sequence: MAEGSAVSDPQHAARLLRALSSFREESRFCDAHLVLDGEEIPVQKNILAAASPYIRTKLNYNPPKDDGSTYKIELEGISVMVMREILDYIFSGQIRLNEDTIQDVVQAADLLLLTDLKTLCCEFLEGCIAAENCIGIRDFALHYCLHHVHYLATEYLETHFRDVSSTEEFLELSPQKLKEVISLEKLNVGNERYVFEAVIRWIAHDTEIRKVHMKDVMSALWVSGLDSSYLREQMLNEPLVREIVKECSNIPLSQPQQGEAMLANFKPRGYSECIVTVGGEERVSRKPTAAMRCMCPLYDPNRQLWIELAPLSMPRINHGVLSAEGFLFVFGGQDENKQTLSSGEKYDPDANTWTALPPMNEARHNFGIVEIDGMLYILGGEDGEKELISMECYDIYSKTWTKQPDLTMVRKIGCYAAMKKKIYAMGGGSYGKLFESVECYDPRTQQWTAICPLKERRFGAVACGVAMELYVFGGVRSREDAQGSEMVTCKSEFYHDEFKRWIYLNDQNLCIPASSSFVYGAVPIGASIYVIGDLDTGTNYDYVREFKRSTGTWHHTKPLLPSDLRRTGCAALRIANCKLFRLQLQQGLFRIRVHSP

T2: truncated gigaxonin lacking the Kelch domain ("BTB" domain bait) (UniProt Q9H2C0)
T2 sequence: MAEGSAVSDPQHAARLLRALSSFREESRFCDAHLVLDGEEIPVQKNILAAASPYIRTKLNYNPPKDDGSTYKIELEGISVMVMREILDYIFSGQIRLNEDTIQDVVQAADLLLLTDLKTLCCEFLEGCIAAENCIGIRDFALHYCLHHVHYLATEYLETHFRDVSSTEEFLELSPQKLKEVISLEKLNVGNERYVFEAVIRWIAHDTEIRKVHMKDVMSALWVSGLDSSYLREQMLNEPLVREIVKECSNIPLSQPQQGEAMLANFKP

T3: FLAG-tagged full-length gigaxonin (GIG), Q9H2C0
T3 chain: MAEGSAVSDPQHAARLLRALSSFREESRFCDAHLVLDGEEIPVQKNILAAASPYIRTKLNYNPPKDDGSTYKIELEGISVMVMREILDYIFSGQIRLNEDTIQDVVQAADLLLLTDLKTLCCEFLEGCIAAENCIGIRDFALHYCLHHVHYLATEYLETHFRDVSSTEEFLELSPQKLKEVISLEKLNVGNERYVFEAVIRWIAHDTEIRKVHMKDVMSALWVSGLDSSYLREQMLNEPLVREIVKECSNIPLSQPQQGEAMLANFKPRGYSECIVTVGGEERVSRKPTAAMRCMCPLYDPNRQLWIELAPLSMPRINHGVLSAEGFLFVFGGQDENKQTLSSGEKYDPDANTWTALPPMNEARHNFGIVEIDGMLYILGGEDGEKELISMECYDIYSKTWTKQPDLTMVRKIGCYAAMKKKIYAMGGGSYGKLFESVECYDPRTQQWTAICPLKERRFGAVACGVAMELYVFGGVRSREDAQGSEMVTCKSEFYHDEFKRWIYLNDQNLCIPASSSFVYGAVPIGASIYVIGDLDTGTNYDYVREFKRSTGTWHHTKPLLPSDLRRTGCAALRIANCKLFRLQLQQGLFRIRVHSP


Tests used:
Assay in all cases: affinity purification with mass spectrometry; FLAG-tagged full-length GIG or BTB bait expressed in HEK293 cells for 28 hours, purified on flag beads, eluted with 3X flag peptide, NanoLC MALDI-TOF/TOF; untransfected cells as negative control; hits parsed at 80% and 98% CI
[1] = molecular target: T1, FLAG-tagged full-length gigaxonin (GIG)
[2] = molecular target: T2, truncated gigaxonin lacking the Kelch domain ("BTB" domain bait)
[3] = molecular target: T3, FLAG-tagged full-length gigaxonin …; settings: remark: other sources report otherwise

Molecule | binding [1] | binding [2] | binding [3]
vimentin (VIM) (from UniProt P08670 1-466) | binds | no binding | –
HSP90AA1 (heat shock protein 90 alpha) (from UniProt P07900 1-732) | binds | binds | –
lamin B2 (protein, UniProt Q03252 1-620) MSPPSPGRRREQRRPRAAATMATPLPGRAGGPATPLSPTRLSRLQEKEELRELNDRLAHYIDRVRALELENDRLLLKISEKEEVTTREVSGIKALYESELADARRVLDETARERARLQIEIGKLRAELDEVNKSAKKREGELTVAQGRVKDLESLFHRSEVELAAALSDKRGLESDVAELRAQLAKAEDGHAVAKKQLEKETLMRVDLENRCQSLQEELDFRKSVFEEEVRETRRRHERRLVEVDSSRQQEYDFKMAQALEELRSQHDEQVRLYKLELEQTYQAKLDSAKLSSDQNDKAASAAREELKEARMRLESLSYQLSGLQKQASAAEDRIRELEEAMAGERDKFRKMLDAKEQEMTEMRDVMQQQLAEYQELLDVKLALDMEINAYRKLLEGEEERLKLSPSPSSRVTVSRATSSSSGSLSATGRLGRSKRKRLEVEEPLGSGPSVLGTGTGGSGGFHLAQQASASGSVSIEEIDLEGKFVQLKNNSDKDQSLGNWRIKRQVLEGEEIAYKFTPKYILRAGQMVTVWAAGAGVAHSPPSTLVWKGQSSWGTGESFRTVLVNADGEEVAMRTVKKSSVMRENENGEEEEEEAEFGEEDLFHQQGDPRTTSRGCYVM | binds | no binding | –
tubulin-folding co-factor B (TBCB), Q99426 1-244 (protein) MEVTGVSAPTVTVFISSSLNTFRSEKRYSRSLTIAEFKCKLELLVGSPASCMELELYGVDDKFYSKLDQEDALLGSYPVDDGCRIHVIDHSGARLGEYEDVSRVEKYTISQEAYDQRQDTVRSFLKRSKLGRYNEEERAQQEAEAAQRLAEEKAQASSIPVGSRCEVRAAGQSPRRGTVMYVGLTDFKPGYWIGVRYDEPLGKNDGSVNGKRYFECQAKYGAFVKPAVVTVGDFPEEDYGLDEI | – | – | no binding
α-internexin (INA) (protein, UniProt Q16352 1-499) MSFGSEHYLCSSSSYRKVFGDGSRLSARLSGAGGAGGFRSQSLSRSNVASSAACSSASSLGLGLAYRRPPASDGLDLSQAAARTNEYKIIRTNEKEQLQGLNDRFAVFIEKVHQLETQNRALEAELAALRQRHAEPSRVGELFQRELRDLRAQLEEASSARSQALLERDGLAEEVQRLRARCEEESRGREGAERALKAQQRDVDGATLARLDLEKKVESLLDELAFVRQVHDEEVAELLATLQASSQAAAEVDVTVAKPDLTSALREIRAQYESLAAKNLQSAEEWYKSKFANLNEQAARSTEAIRASREEIHEYRRQLQARTIEIEGLRGANESLERQILELEERHSAEVAGYQDSIGQLENDLRNTKSEMARHLREYQDLLNVKMALDIEIAAYRKLLEGEETRFSTSGLSISGLNPLPNPSYLLPPRILSATTSKVSSTGLSLKKEEEEEEASKVASKKTSQIGESFEEILEETVISTKKTEKSNIEETTISSQKI | binds | no binding | –

Further lines, results first:

binding [1] | binding [2] | binding [3] | Molecule
binds | no binding | – | peripherin (PRPH), endogenous (from UniProt P41219 1-470)
binds | binds | – | HSP90AB1 (heat shock protein 90 beta) (from UniProt P08238 1-724)
binds | binds | – | E3 ubiquitin protein ligase MYC binding protein 2 (MYCBP2) (from UniProt O75592 1-4678) (enzyme)
binds | no binding | – | keratin 82 (protein, UniProt Q9NSB4 1-513) MSYHSFQPGSRCGSQSFSSYSAVMPRMVTHYAVSKGPCRPGGGRGLRALGCLGSRSLCNVGFGRPRVASRCGGTLPGFGYRLGATCGPSACITPVTINESLLVPLALEIDPTVQRVKRDEKEQIKCLNNRFASFINKVRFLEQKNKLLETKWNFMQQQRCCQTNIEPIFEGYISALRRQLDCVSGDRVRLESELCSLQAALEGYKKKYEEELSLRPCVENEFVALKKDVDTAFLMKADLETNAEALVQEIDFLKSLYEEEICLLQSQISETSVIVKMDNSRELDVDGIIAEIKAQYDDIASRSKAEAEAWYQCRYEELRVTAGNHCDNLRNRKNEILEMNKLIQRLQQETENVKAQRCKLEGAIAEAEQQGEAALNDAKCKLAGLEEALQKAKQDMACLLKEYQEVMNSKLGLDIEIATYRRLLEGEEHRLCEGIGPVNISVSSSKGAFLYEPCGVSTPVLSTGVLRSNGGCSIVGTGELYVPCEPQGLLSCGSGRKSSMTLGAGGSSPSHKH
binds | no binding | – | neurofilament light chain (NEFL) (protein, UniProt P07196 1-543) MSSFSYEPYYSTSYKRRYVETPRVHISSVRSGYSTARSAYSSYSAPVSSSLSVRRSYSSSSGSLMPSLENLDLSQVAAISNDLKSIRTQEKAQLQDLNDRFASFIERVHELEQQNKVLEAELLVLRQKHSEPSRFRALYEQEIRDLRLAAEDATNEKQALQGEREGLEETLRNLQARYEEEVLSREDAEGRLMEARKGADEAALARAELEKRIDSLMDEISFLKKVHEEEIAELQAQIQYAQISVEMDVTKPDLSAALKDIRAQYEKLAAKNMQNAEEWFKSRFTVLTESAAKNTDAVRAAKDEVSESRRLLKAKTLEIEACRGMNEALEKQLQELEDKQNADISAMQDTINKLENELRTTKSEMARYLKEYQDLLNVKMALDIEIAAYRKLLEGEETRLSFTSVGSITSGYSQSSQVFGRSAYGGLQTSSYLMSTRSFPSYYTSHVQEEQIEVEETIEAAKAEEAKDEPPSEGEAEEEEKDKEEAEEEEAAEEEEAAKEESEEAKEEEEGGEGEEGEETKEAEEEEKKVEGAGEEQAAKKKD
binds | no binding | – | neurofilament heavy chain (NEFH) (protein, UniProt P12036 1-1020) MMSFGGADALLGAPFAPLHGGGSLHYALARKGGAGGTRSAAGSSSGFHSWTRTSVSSVSASPSRFRGAGAASSTDSLDTLSNGPEGCMVAVATSRSEKEQLQALNDRFAGYIDKVRQLEAHNRSLEGEAAALRQQQAGRSAMGELYEREVREMRGAVLRLGAARGQLRLEQEHLLEDIAHVRQRLDDEARQREEAEAAARALARFAQEAEAARVDLQKKAQALQEECGYLRRHHQEEVGELLGQIQGSGAAQAQMQAETRDALKCDVTSALREIRAQLEGHAVQSTLQSEEWFRVRLDRLSEAAKVNTDAMRSAQEEITEYRRQLQARTTELEALKSTKDSLERQRSELEDRHQADIASYQEAIQQLDAELRNTKWEMAAQLREYQDLLNVKMALDIEIAAYRKLLEGEECRIGFGPIPFSLPEGLPKIPSVSTHIKVKSEEKIKVVEKSEKETVIVEEQTEETQVTEEVTEEEEKEAKEEEGKEEEGGEEEEAEGGEEETKSPPAEEAASPEKEAKSPVKEEAKSPAEAKSPEKEEAKSPAEVKSPEKAKSPAKEEAKSPPEAKSPEKEEAKSPAEVKSPEKAKSPAKEEAKSPAEAKSPEKAKSPVKEEAKSPAEAKSPVKEEAKSPAEVKSPEKAKSPTKEEAKSPEKAKSPEKEEAKSPEKAKSPVKAEAKSPEKAKSPVKAEAKSPEKAKSPVKEEAKSPEKAKSPVKEEAKSPEKAKSPVKEEAKTPEKAKSPVKEEAKSPEKAKSPEKAKTLDVKSPEAKTPAKEEARSPADKFPEKAKSPVKEEVKSPEKAKSPLKEDAKAPEKEIPKKEEVKSPVKEEEKPQEVKVKEPPKKAEEEKAPATPKTEEKKDSKKEEAPKKEAPKPKVEEKKEPAVEKPKESKVEAKKEEAEDKKKVPTPEKEAPAKVEVKEDAKPKEKTEVAKKEPDDAKAKEPSKPAEKKEAAPEKKDTKEEKAKKPEEKPKTEAKAKEDDKTLSKEPSKPKAEKAEKSSSTDQKDSKPPEKATEDKAAKGK

These are yes or no findings as the source states them, for the method shown. Binding seen in cells or lysates may run through a third protein. A yes stands for co-enrichment or nearness to the bait. Other partners may have been found. For part of these data: A no says only that the protein was not detected with the bait. For part of these data: Sequences can lack the tags named with a protein.
